According to publication PMC6274713:
The comparison behind a weaker result is the experiment's own reference, which may not be listed here. Tags and fusion partners may be left off the protein sequences shown.

How the values were obtained:
MLL4 3500-3630 [1] = biological target: T1, MLL4 3500-3630 (UniProt O14686); assay: MST; settings: no saturation, stronger than MLL4 4210-4280; recombinant protein; residues 3500-3630; protein details: His tag (implied by HisTrap, pET22b); label: biotin (EMSA), fluorescent (MST)
T1 sequence (looked up): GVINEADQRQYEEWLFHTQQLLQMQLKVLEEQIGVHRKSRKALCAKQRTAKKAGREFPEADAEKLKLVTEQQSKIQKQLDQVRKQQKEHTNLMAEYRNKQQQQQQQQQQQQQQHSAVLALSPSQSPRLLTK

MLL4 4210-4280 [2] = biological target: T2, MLL4 4210-4280 (UniProt O14686); assay: MST; settings: no saturation; recombinant protein; residues 4210-4280; protein details: His tag (implied by HisTrap, pET22b); label: biotin (EMSA), fluorescent (MST)
T2 sequence (looked up): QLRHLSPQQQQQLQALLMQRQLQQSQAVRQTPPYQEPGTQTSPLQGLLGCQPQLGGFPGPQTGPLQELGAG

MLL4 3500-3630 [3] = biological target: T1, MLL4 3500-3630; assay: EMSA; settings: minor loss of RNA signal at highest protein; EMSA: LightShift RNA EMSA kit protocol, 1 or 2 nM RNA, 30 min at room temperature, 4 or 6% native PAGE; recombinant protein; residues 3500-3630; protein details: His tag (implied by HisTrap, pET22b); label: biotin (EMSA), fluorescent (MST)
MLL4 4210-4280 [4] = biological target: T2, MLL4 4210-4280; assay: EMSA; settings: minor loss of RNA signal at highest protein; EMSA: LightShift RNA EMSA kit protocol, 1 or 2 nM RNA, 30 min at room temperature, 4 or 6% native PAGE; recombinant protein; residues 4210-4280; protein details: His tag (implied by HisTrap, pET22b); label: biotin (EMSA), fluorescent (MST)

Measured: binding result

GAAGAAUGGCCUCGCGGAGGCAUGCGUCAUGCUAGCGUGCGGGGUACUCUU [50 nt RNA]
binds more weakly: all assays above
